# Patent US8696867B2, “Disulfo-type fluorescent whitening agents” (Blankophor GmbH & Co. KG, priority 2009, dated 2014)
# Some results were stated once for a whole list of compounds, not compound by compound. At least one compound was matched to its structure with a doubt left.
# Experiment: Storage stability of approximately 20% aqueous solution
# Assay type: physicochemical
# Settings: approximately 20% solution, without stirring
# Protocol: The stability behavior was studied by storing an approximately 20% solution of FWA 1 and FWA 2, respectively, at ambient temperature and at 4° C., each without stirring. The aqueous brightener preparations have a shelf-life of more than 30 days both at ambient and low temperature.
SMILES,shelf-life (4° C.),shelf-life (ambient temperature)
O=C([O-])c1ccc(Nc2nc(Nc3ccc(/C=C/c4ccc(Nc5nc(Nc6ccc(C(=O)[O-])cc6)nc(N(CCO)CCO)n5)cc4S(=O)(=O)[O-])c(S(=O)(=O)[O-])c3)nc(N(CCO)CCO)n2)cc1.[Na+].[Na+].[Na+].[Na+] [FWA 1],more than 30 days,more than 30 days
CC(O)CN(CC(C)O)c1nc(Nc2ccc(C(=O)[O-])cc2)nc(Nc2ccc(/C=C/c3ccc(Nc4nc(Nc5ccc(C(=O)[O-])cc5)nc(N(CC(C)O)CC(C)O)n4)cc3S(=O)(=O)[O-])c(S(=O)(=O)[O-])c2)n1.[Na+].[Na+].[Na+].[Na+] (stereo not shown) [FWA 2],more than 30 days,more than 30 days
